Laboratory results: publication PMC9749463 (European Journal of Pharmacology, 2021)

Amino acid sequences for entries named in this document (tags omitted).
UniProt Q14524, whole entry: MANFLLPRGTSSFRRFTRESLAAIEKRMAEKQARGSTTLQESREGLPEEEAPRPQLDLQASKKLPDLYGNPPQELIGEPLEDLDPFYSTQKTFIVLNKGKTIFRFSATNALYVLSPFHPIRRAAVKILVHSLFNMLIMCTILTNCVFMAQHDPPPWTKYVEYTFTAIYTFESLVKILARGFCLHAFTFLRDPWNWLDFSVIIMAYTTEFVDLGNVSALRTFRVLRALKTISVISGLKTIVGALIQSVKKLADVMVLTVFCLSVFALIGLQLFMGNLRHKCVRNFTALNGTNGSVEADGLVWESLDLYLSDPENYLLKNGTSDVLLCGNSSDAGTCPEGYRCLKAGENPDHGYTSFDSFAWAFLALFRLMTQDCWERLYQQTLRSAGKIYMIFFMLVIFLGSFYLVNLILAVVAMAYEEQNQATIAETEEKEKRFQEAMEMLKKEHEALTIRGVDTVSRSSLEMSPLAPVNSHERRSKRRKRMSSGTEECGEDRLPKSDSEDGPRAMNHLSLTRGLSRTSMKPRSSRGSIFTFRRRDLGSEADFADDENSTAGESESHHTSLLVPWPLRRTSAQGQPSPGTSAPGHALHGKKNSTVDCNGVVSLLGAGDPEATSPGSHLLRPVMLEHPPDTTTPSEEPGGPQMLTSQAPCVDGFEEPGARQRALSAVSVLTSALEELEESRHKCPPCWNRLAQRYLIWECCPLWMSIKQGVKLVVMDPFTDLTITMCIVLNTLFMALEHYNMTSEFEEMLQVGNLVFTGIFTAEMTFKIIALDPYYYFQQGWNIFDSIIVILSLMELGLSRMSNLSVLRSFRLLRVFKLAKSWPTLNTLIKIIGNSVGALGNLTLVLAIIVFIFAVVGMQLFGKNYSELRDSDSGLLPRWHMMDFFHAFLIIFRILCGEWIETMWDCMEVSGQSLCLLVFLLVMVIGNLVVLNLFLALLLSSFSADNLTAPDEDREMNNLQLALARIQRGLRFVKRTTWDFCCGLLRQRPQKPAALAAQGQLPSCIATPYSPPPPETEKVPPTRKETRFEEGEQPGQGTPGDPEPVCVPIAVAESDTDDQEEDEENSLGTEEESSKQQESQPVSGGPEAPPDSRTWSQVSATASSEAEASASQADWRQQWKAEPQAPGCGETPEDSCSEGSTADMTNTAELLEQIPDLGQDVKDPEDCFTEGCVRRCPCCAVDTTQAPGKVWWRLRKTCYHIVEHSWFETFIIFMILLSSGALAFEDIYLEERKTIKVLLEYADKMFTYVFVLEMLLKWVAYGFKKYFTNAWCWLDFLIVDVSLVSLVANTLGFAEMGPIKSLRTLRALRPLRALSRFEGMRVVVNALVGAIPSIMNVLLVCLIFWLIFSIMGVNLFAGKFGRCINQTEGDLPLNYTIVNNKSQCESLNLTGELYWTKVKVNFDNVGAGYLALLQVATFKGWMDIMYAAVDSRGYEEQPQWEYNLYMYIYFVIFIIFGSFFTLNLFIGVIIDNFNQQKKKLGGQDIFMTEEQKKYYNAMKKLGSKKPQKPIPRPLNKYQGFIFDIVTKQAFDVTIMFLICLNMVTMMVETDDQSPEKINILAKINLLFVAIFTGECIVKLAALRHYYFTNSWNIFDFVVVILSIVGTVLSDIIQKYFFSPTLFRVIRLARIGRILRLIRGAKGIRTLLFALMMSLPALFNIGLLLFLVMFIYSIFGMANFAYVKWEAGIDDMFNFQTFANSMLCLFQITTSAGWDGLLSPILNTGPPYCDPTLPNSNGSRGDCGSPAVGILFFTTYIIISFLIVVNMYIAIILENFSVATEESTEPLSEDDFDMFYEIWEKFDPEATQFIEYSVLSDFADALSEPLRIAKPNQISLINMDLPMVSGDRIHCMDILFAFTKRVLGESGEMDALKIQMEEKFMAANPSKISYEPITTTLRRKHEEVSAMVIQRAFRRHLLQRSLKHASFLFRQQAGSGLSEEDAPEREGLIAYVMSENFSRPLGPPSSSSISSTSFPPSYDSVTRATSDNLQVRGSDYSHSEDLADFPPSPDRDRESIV

Biological target: NaV1.5 (Homo sapiens, UniProt Q14524)
Test: automated patch-clamp
Format: cell-based
Conditions: lidocaine 3 mM

## CCN(CC)CC(=O)Nc1c(C)cccc1C [lidocaine, reference compound]
  effect on NaV1.5 currents: abolished all currents
